Experimental data as given in PMC12211996.
No constants are given. Whether binding was seen depends on the method and setting. Binding seen in cells or lysates may run through a third protein. Some entries that bind do so weakly or less than the wild type.

Amino acid sequences for entries named in this document (tags omitted).
UniProt P28322: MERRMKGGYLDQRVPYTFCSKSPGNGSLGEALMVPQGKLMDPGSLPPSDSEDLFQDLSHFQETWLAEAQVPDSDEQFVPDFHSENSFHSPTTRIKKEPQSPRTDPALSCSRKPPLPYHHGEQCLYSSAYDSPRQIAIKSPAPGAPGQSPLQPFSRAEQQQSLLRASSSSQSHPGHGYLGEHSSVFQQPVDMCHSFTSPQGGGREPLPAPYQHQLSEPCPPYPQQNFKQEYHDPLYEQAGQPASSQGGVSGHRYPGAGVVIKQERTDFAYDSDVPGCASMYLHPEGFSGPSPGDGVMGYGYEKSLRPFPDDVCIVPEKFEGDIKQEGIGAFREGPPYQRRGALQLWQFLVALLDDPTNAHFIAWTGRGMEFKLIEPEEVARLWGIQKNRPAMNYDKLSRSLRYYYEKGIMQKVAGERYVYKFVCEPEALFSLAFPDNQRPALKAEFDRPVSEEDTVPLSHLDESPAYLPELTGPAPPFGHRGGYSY
UniProt P28033: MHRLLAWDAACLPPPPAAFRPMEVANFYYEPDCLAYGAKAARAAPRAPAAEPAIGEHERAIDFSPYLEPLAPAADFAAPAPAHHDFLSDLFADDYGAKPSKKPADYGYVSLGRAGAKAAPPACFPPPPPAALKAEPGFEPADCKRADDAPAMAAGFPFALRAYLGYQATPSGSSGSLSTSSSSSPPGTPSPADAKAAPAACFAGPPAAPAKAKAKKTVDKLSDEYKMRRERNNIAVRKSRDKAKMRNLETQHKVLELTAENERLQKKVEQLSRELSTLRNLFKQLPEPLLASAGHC
UniProt P37238: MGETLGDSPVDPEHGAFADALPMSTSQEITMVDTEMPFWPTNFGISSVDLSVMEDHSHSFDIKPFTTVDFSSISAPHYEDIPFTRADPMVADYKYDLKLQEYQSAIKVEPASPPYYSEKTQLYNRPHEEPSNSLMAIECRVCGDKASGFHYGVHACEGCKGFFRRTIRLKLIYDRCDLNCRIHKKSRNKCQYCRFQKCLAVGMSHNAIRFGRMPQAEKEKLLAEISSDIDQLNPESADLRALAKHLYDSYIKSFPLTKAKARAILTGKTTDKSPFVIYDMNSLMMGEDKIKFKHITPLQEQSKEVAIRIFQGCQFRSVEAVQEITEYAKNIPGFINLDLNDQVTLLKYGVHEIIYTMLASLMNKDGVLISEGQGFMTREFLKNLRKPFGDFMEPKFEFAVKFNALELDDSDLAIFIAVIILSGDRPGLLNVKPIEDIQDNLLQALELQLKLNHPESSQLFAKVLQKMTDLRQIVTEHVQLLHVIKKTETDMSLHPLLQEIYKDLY

B1: Ebf2 (protein, UniProt O08792 1-575)
chain: MFGIQDTLGRGPALKDKSLGAEMDSVRSWVRNVGVVDANVAAQSGVALSRAHFEKQPPSNLRKSNFFHFVLALYDRQGQPVEIERTAFVDFVENDKEQGNEKTNNGTHYKLQLLYSNGVRTEQDLYVRLIDSVTKQPIAYEGQNKNPEMCRVLLTHEVMCSRCCEKKSCGNRNETPSDPVIIDRFFLKFFLKCNQNCLKTAGNPRDMRRFQVVLSTTVNVDGHVLAVSDNMFVHNNSKHGRRARRLDPSEATPCIKAISPSEGWTTGGAMVIIIGDNFFDGLQVVFGTMLVWSELITPHAIRVQTPPRHIPGVVEVTLSYKSKQFCKGAPGRFIYTALNEPTIDYGFQRLQKVIPRHPGDPERLAKEMLLKRAADLVEALYGTPHNNQDIILKRAADIAEALYSVPRNPSQIPALSSSPAHSGMMGINSYGSQLGVSISESTQGNNQGYIRNTSSISPRGYSSSSTPQQSNYSTSSNSMNGYSNVPMANLGVPGSPGFLNGSPTGSPYGIMSSSPTVGSSSTSSILPFSSSVFPAVKQKSAFAPVIRPQGSPSPACSSGNGNGFRAMTGLVVPPM

Each molecule was assayed against HA-tagged Etv4 (UniProt P28322) (assay: co-IP; lysate of mouse brown adipose tissue two weeks after injection of AAV HA-Etv4; cell lysis buffer with proteinase inhibitor; IgG or HA antibody for 2 h, protein A/G beads, washed three times with PBS; immunoblot for the indicated proteins).

Q: For Cebpβ (from UniProt P28033 1-296), which binding is on record?
A: The binding was “no binding”.

Q: Which binding does the source give for PPARγ (from UniProt P37238 1-505) here?
A: The binding was “binds”.

Q: With B1 as the molecule, how does the binding read?
A: Its binding is “binds”.
